Part of at least one peptide drawing is inferred or uncertain, most often the ends. Where a SMILES comes first, the peptide text is derived from it.
Columns and labels:
[1] = system: mesenchymal stem cells (cloned from Balb/c mouse bone marrow stromal cells); assay: Assay for mineralization (alizarin red S staining) during osteoblast differentiation; format: cell-based; settings: compared with cells treated with BMP-7
[2] = system: osteocalcin, alkaline phosphatase and Runx-2; assay: Fluorescent antibody microscopy of osteoblast-specific proteins; format: cell-based, mouse; settings: for Runx-2 expression (fluorescence microscopy) / alkaline phosphatase expression (fluorescence microscopy): 1 μg/ml; for osteocalcin expression (fluorescence microscopy): ODM with 1 μg/ml, compared with ODM alone or supplemented with BMP-7
[3] = system: osteoblast-specific surface proteins CD44, CD51, CD47 and CD45 on mesenchymal stem cells; assay: FACS analysis of osteoblast-specific surface proteins; format: cell-based, mouse; settings: for CD44 expression level (FACS): 1 μg/ml in ODM; for induction of CD44 expression (FACS): ODM + peptide vs ODM alone
[4] = system: surface marker CD44; assay: Fluorescence microscopy of surface marker CD44; format: cell-based, mouse; settings: ODM in combination with peptide vs ODM alone
Source text: The effects of BFP 1 and BFP 2 on the expression of the surface marker CD44 were observed under a fluorescence microscope and the results are given in FIGS. 10a and 10b.
During differentiation, the cells were stained with DAPI, a fluorescent stain that easily binds to the DNA of living cells, and with a PE(phycoerythrin)-conjugated-CD44 antibody.

[5] = system: osteoblast-specific alkaline phosphatase (ALP) and calcium; assay: ALP and calcium measured with a commercially available diagnostic kit; format: cell-based, mouse; settings: 1 μg/ml
[6] = system: mesenchymal stem cells; assay: Chemotaxis and cell migration assay; format: cell-based, mouse; settings: in ODM, compared with BMP-7
[7] = system: mice; assay: In vivo bone formation after implantation of treated cells (X-ray, hematoxylin & eosin); settings: for bone formation on X-ray: Week 4 after implantation of treated cells into the back of mice; for bone formation on X-ray compared with BMP-7: Week 8 after implantation; for bone formation, hematoxylin & eosin histology: tissues excised at Week 8
[8] = system: osteoblast specific genes, type 1 collagen, alkaline phosphatase and Runx-2; assay: Real-time PCR of osteoblast specific genes; format: cell-based, mouse; settings: 1 μg/ml, percentage of that in ODM free of BFP 1
[9] = ODM supplemented with peptide vs ODM alone

Row | SMILES | alizarin red staining colour intensity compared with BMP-7 [1] | Runx-2 expression (fluorescence microscopy) [2] | alkaline phosphatase expression (fluorescence microscopy) [2] | osteocalcin expression (fluorescence microscopy) [2] | CD44 expression level (FACS) [3] | induction of CD44 expression (FACS) [3] | CD44 level (fluorescence microscopy, PE-conjugated CD44 antibody) [4] | level of ALP (diagnostic kit) [5] | level of calcium (diagnostic kit) [5] | cell migration (chemotaxis) [6] | bone formation on X-ray [7] | bone formation on X-ray compared with BMP-7 [7] | bone formation, hematoxylin & eosin histology [7] | expression level of Runx2 [8] | expression level of type 1 collagen [8] | CD47 expression level (FACS) [3, 9] | CD51 expression level (FACS) [3, 9]
1 | CC(C)[C@H](N)C(=O)N[C@@H](CCC(=O)O)C(=O)N[C@@H](Cc1c[nH]cn1)C(=O)N[C@@H](CC(=O)O)C(=O)N[C@@H](CCCCN)C(=O)N[C@@H](CCC(=O)O)C(=O)N[C@@H](Cc1ccccc1)C(=O)N[C@@H](Cc1ccccc1)C(=O)N[C@@H](Cc1c[nH]cn1)C(=O)N1CCC[C@H]1C(=O)N[C@@H](CCCNC(=N)N)C(=O)N[C@@H](Cc1ccc(O)cc1)C(=O)N[C@@H](Cc1c[nH]cn1)C(=O)N[C@@H](Cc1c[nH]cn1)C(=O)N[C@@H](CCCNC(=N)N)C(=O)O [BFP 2, Val-Glu-His-Asp-Lys-Glu-Phe-Phe-His-Pro-Arg-Tyr-His-His-Arg] (H-VEHDKEFFHPRYHHR-OH) | more intense colors | higher expression level | expressed at higher levels | expressed at a higher level | expressed at a higher level | induce the expression of CD44 | Higher levels of CD44 | Significant increases | Significant increases | more cells were observed to migrate | bone appeared | greater bone formation | induced bone formation like as BMP7 control |  |  |  | 
2 | CC(C)[C@H](NC(=O)[C@H](C)NC(=O)[C@H](CCCCN)NC(=O)[C@H](Cc1ccc(O)cc1)NC(=O)[C@@H]1CCCN1C(=O)[C@H](Cc1ccc(O)cc1)NC(=O)[C@H](CO)NC(=O)[C@H](Cc1ccccc1)NC(=O)CNC(=O)[C@H](CCC(N)=O)NC(=O)CN)C(=O)N[C@@H](Cc1ccccc1)C(=O)N[C@@H](CO)C(=O)N[C@H](C(=O)N[C@@H](CCC(N)=O)C(=O)O)[C@@H](C)O [BFP 1, Gly-Gln-Gly-Phe-Ser-Tyr-Pro-Tyr-Lys-Ala-Val-Phe-Ser-Thr-Gln] (H-GQGFSYPYKAVFSTQ-OH) | more intense colors | higher expression level | expressed at higher levels | expressed at a higher level | expressed at a higher level | induce the expression of CD44 | Higher levels of CD44 | Significant increases | Significant increases | more cells were observed to migrate | bone appeared | greater bone formation | induced bone formation like as BMP7 control | 178% | 171% | expressed at higher levels | expressed at higher levels

Source: patent US8066980B2, “Osteogenic synthetic peptides, pharmaceutical compositions comprising the same, and medium containing the same” (Industry Foundation of Chonnam National University, priority 2008, dated 2011)
